Measured values as given in PubChem BioAssay AID2685 (National Center for Advancing Translational Sciences (NCATS), 2010).
This is one part of the list. The main result of the screen is listed elsewhere. These columns were measured beside it and carry no call. The list favours compounds with an active or inconclusive main result. Potencies come from curve fits of mixed quality, noted in brackets.

Assay: qHTS Assay for Lipid Storage Modulators in Drosophila S3 Cells;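 as to cell number change: cells counted by Cell Tracker Red CMTPX staining in the red channel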
Conditions: BODIPY lipid droplet fluorescence, 18-24 h; for cell number change: measured here: cell count max response, cells fed with added oleic acid
Procedure, shortened: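 Drosophila S3 cells got compounds at several concentrations plus oleic acid (400 uM solution). Laser-scanning cytometry with 488 nm excitation read lipid droplets at 500-530 nm and cells at 575-640 nm. Percent activity was relative to 20 uM Triacsin C.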

[1] = measured here: cell number channel AC50, cells fed with added oleic acid
[2] = measured here: lipid fluorescence (Fed channel) AC50, cells fed with added oleic acid

SMILES	cell number change	AC50 [1]	AC50 [2]
CN(C(=O)Cc1c(C(=O)O)n(C)c2ccccc12)c1cccc(C(F)(F)F)c1	42.3%	9.2 µM [rising, partial curve, poor fit]	
NC(=O)COC(=O)c1c2c(nc3ccccc13)CCCC2	3.38%		
Cc1onc(-c2ccccc2Cl)c1C(=O)N1C=CC(C(F)(F)Cl)=NCC1	13.8%		14.6 µM [rising, partial curve, poor fit]
COc1ccc(C(=O)Nc2cccc(/C=C/c3nc4ccccc4c(=O)[nH]3)c2)cc1	9.96%		32.6 µM [falling, single point]
CCOC(=O)c1sc(NC(=O)C(CC)OC(=O)c2ccco2)nc1C (centres undefined)	8.7%	4.61 µM [rising, partial curve, poor fit]	
O=C(O)c1cccc(S(=O)(=O)N(Cc2ccccc2)c2cccc(C(F)(F)F)c2)c1	5.31%		3.26 µM [falling, partial curve]
CCOC(=O)c1ccc2cccc(C)n2c1=O	-26.7%	0.00517 µM [falling, full curve, poor fit]	
CCN(CC)C(=O)c1cncc(C(=O)N(CC)CC)c1-c1ccccc1	8.45%		8.2 µM [rising, partial curve]
O=C(c1cc2ccccc2o1)N(Cc1nnc(-c2ccccc2Cl)o1)C1CC1	-6.41%		1.84 µM [rising, partial curve]
Cc1ccc(C(=O)N2CCN(S(=O)(=O)N3CCCCC3)CC2)cc1	11.8%		4.61 µM [falling, single point]
CCc1cccc(NC(=O)CSC2=NS(=O)(=O)c3ccccc32)c1	13.5%		2.59 µM [falling, full curve]
COc1ccccc1NC(=O)CCc1nnc2ccc(N3CCC4(CC3)OCCO4)nn12			1.64 µM [falling, partial curve]
CCOc1ccc(OCC)c(NC(=O)CN2CCN(C(=O)c3ccco3)CC2)c1	-1.48%		6.51 µM [rising, single point]
Cc1cc(NC(=O)Cc2csc(-c3ccccc3)n2)ccc1Br	8.15%		0.164 µM [rising, full curve, poor fit]
O=C(CC1SC(=NCC2CCCO2)NC1=O)Nc1cccc2ccccc12 (centres undefined)	4.95%		
O=C(OCC(=O)N1CCN(C(=O)COC(=O)c2ccncc2)CC1)c1ccncc1	3.82%	0.517 µM [rising, full curve, poor fit]	
COC(=O)/C(=C\c1cc(OC)c(OC)c(OC)c1)c1nc2ccccc2[nH]1	-41.4%	29.1 µM [falling, single point]	29.1 µM [falling, partial curve]
N/C(Cc1ccc(Cl)cc1)=N\OC(=O)c1ccc2ccccc2c1	25.5%		4.61 µM [falling, partial curve, poor fit]
CCOC(=O)c1cc(NC(=O)c2ccccc2)c(=O)oc1C(F)(F)F	11.9%	0.00731 µM [rising, full curve, poor fit]	

SMILES	cell number change	AC50 [1]	AC50 [2]
Clc1ccc(-c2nc3ccncc3[nH]2)cc1	1.59%		0.82 µM [rising, full curve]
c1ccc(CNc2nc(NCc3ccccc3)c3ccccc3n2)cc1			4.61 µM [falling, full curve, poor fit]
CCOC(=O)c1c(N)sc(C(=O)Nc2ccc3c(c2)OCO3)c1C	-7.97%		0.58 µM [rising, single point]
Cc1cccc(NC(=O)C2CCN(C(=O)[C@@H]3Cc4ccccc4CN3)CC2)c1	59%	25.9 µM [rising, single point]	25.9 µM [rising, single point]
CCc1ccc(OCc2ccc(C(=O)OC)o2)cc1	57.4%		
COc1ccc(NC(=O)Nc2ccc(OCc3ccccc3)cc2)cn1	15%		0.731 µM [rising, partial curve, poor fit]
CC(C)CC(=O)OC1C(N2CCOCC2)c2c(ccc(/C=C/C(=O)N3CCOCC3)c2O)OC1(C)C (centres undefined)	-49.4%	29.1 µM [falling, single point]	29.1 µM [falling, single point]
CC1(C)CC(=O)C(C=NCCN2CCN(CC(=O)Nc3ccc(Cl)cc3)CC2)=C(O)C1	-9.34%	0.00461 µM [falling, full curve, poor fit]	
Cc1ccc2c(c1)c(C)c(C)n2CC(O)CN1CCCCC1C (centres undefined)	-33.7%	0.0058 µM [falling, full curve, poor fit]	5.8 µM [falling, full curve]
Cc1nc2nc[nH]n2c(=O)c1C/C=C/c1ccccc1	8.02%		
O=C(NC(=S)Nc1cc(Cl)ccc1N1CCOCC1)c1ccccc1[N+](=O)[O-]	-57.4%	10.3 µM [falling, partial curve, poor fit]	29.1 µM [falling, single point]
C/C(CC(=O)Nc1ccc2ccccc2c1)=N\NC(=O)c1cnccn1	2.91%		13 µM [rising, partial curve, poor fit]
Cc1cccc2cc(CN(Cc3ccccc3)C(=O)N(C)C)c(=O)[nH]c12	20.7%		1.84 µM [rising, partial curve]
CNC(=S)N1CCN(c2c(F)cc3c(=O)c(C(=O)O)cn(C4CC4)c3c2OC)CC1C (centres undefined)	-33.9%	7.31 µM [falling, partial curve]	16.4 µM [falling, single point]
CCCCNC(=S)N1CCN(CC)CC1	2.08%		0.103 µM [falling, full curve, poor fit]
COc1cccc(N(CC(=O)NC2CCCCCC2)S(=O)(=O)c2ccccc2)c1	12.9%	6.51 µM [rising, single point]	
O=C(NCc1cccc(Cl)c1)c1cccc(S(=O)(=O)N2CCCCC2)c1	-6.14%	0.116 µM [falling, full curve, poor fit]	0.103 µM [falling, full curve, poor fit]
COc1ccc(NC(=O)N2CCN(S(=O)(=O)c3ccc(F)cc3)CC2)c(OC)c1	7.23%		2.91 µM [rising, single point]
COc1ccc(C)cc1NC(=O)C(Sc1nnc(Nc2cc(C)ccc2OC)s1)c1ccccc1 (centres undefined)	22.9%		2.06 µM [rising, partial curve]

Exported bar-delimited: entries from further up
SMILES | cell number change | AC50 [1] | AC50 [2]
COc1ccccc1NC(=O)CCc1nnc2ccc(N3CCC4(CC3)OCCO4)nn12 |  |  | 1.64 µM [falling, partial curve]
CCOc1ccc(OCC)c(NC(=O)CN2CCN(C(=O)c3ccco3)CC2)c1 | -1.48% |  | 6.51 µM [rising, single point]
COc1cccc(N(CC(=O)NC2CCCCCC2)S(=O)(=O)c2ccccc2)c1 | 12.9% | 6.51 µM [rising, single point] | 

Further compounds follow:

SMILES	cell number change	AC50 [1]	AC50 [2]
Cc1ccc(C)c(N2CCN(c3ncccc3[N+](=O)[O-])CC2)c1	-26.3%		5.17 µM [falling, partial curve]
CC(=O)N(Cc1cc(=O)[nH]c2ccccc12)c1cccc(C)c1	5.48%		6.51 µM [rising, single point]
CCOC(=O)N1CCC(N2CCCC(C(=O)c3cc(C)c(OC)c(C)c3)C2)CC1 (centres undefined)	28.3%		2.31 µM [falling, single point]
CCC(C)c1ccc(OCC(=O)Nc2ccc(CN3CCOCC3)cc2)cc1 (centres undefined)	-20.1%		29.1 µM [rising, single point]
CN(C)S(=O)(=O)c1ccc2c(c1)nc1n2CCC1	-29.8%		0.00731 µM [falling, full curve, poor fit]
C/C(=N\O)C(C)(C)Nc1cccc(F)c1	-14.5%		5.17 µM [falling, full curve, poor fit]
NC(=O)Cn1cc(C(=O)c2cccs2)c2ccccc21	-15.4%		20.6 µM [rising, single point]
CCC(Sc1ccc2nnc(-c3cccnc3)n2n1)C(=O)O (centres undefined)	-129%	18.4 µM [falling, partial curve]	18.4 µM [falling, partial curve]
COc1ccc(-c2sc(Nc3ccccc3)n[n+]2-c2ccccc2)cc1Br	62.5%	16.4 µM [rising, partial curve]	18.4 µM [rising, single point]
COc1cc(C(=O)NC(=S)NC(C)C)cc(OC)c1OC	27.1%		0.92 µM [rising, partial curve]
CN(Cc1ccccc1)C(=O)CSc1n[nH]c(N)n1	4.17%	0.0291 µM [falling, full curve, poor fit]	29.1 µM [rising, single point]
CCC(=O)N1c2ccc(S(=O)(=O)CCC(=O)N3CCN(c4ccccc4F)CC3)cc2CC1C (centres undefined)	11%		
Cc1ccc(C(=O)N/C(=C/c2cccs2)C(=O)NCC2CCCO2)cc1 (centres undefined)	9.63%	6.51 µM [falling, single point]	6.51 µM [falling, partial curve]
O=S(=O)(NCC1CCCO1)c1cc(Br)c(Br)s1 (centres undefined)	132%	16.4 µM [rising, partial curve]	16.4 µM [rising, partial curve]
CCOC(=O)c1sc(=NC(=O)c2ccc(Cl)s2)n(C)c1C	-5.23%		
O=C(CSc1nnc(C2CCCCC2)n1-c1ccccc1)NCc1ccco1	-38.1%	18.4 µM [falling, partial curve]	
CCOC(=O)c1ccc(NC(=O)NC2CCN(CC(=O)NCc3ccc4c(c3)OCO4)CC2)cc1	22.8%		0.517 µM [rising, single point]
CCCC(=O)O[C@H]1C[C@@H](C)N(C(=O)c2ccccc2)c2ccc(C)cc21	-35.2%	18.4 µM [falling, single point]	20.6 µM [falling, single point]
COc1ccccc1N1CCN(C(=O)c2ccc(Br)s2)CC1	53.1%	29.1 µM [rising, single point]	
